From patent publication US8652483B2, “Viral infection enhancing peptide” (priority 2010, dated 2014)
Read-outs that look alike come from different tables or passages of the source. Not every detail of the peptide structures is certain; ends, links or a residue may be inferred. No end group written: not given here.

Key:
[1] = tested on: 293T cells (luciferase encoding LV vectors pseudotyped with various glycoproteins); assay type: cell-based, human; conditions: for luciferase activities: 100 μM SWB, untreated below 5.0×10^5
[2] = tested on: 293T cells (luciferase encoding RV vectors pseudotyped with various glycoproteins); assay type: cell-based, human; conditions: RV particles; SWB treated virions versus untreated

QCKIKQIINMWQ [SWB]
luciferase activities ([1]; LV MLV): ≤ 1.4×10^7 RLU/s | luciferase activities ([1]; LV RD114-tr): up to 6.5×10^6 RLU/s | transduction rates (luciferase) ([1]; 5 to 100 μM SWB during virion treatment, LV and RV vectors, 2 days): enhanced transduction rates of all analyzed vectors | reporter gene activities [2]: markedly increased
